In publication PMC5617480 (Oncotarget, 2017):

Test system: BEL-7404 cells
Assay: Uptake and distribution of Pt in BEL-7404 cells (ICP-MS)
Format: cell-based, human
Settings: BEL-7404, 10 μM, 8.0 h

**Q.** Which “distribution of Pt in cellular fractions” value does the source give for cis-[PtCl2(R-(+)-FOA)] [complex 5] here?
**A.** mainly accumulated in cytoplasmic proteins and other cellular fractions

**Q.** Which “distribution of Pt in cellular fractions” value does the source give for cis-[PtCl2(R/S-(±)-FOA)] [complex 4] here?
**A.** mainly accumulated in cytoplasmic proteins and other cellular fractions

**Q.** How did the “Pt concentration in treated cells, times higher than cisplatin group” value turn out when cis-[PtCl2(S-(–)-FOA)] [complex 6] was run?
**A.** 2.5 times

**Q.** What about the “Pt concentration in treated cells, times higher than complex 4 group” value of the same substance?
**A.** 1.7 times

**Q.** What about the “Pt concentration in treated cells, times higher than complex 5 group” value of the same substance?
**A.** 2.3 times

**Q.** What about the “distribution of Pt in cellular fractions” value of the same substance?
**A.** highly accumulated in nuclear fraction
